# Read-outs that look alike come from different tables or passages of the source.
smiles,measurement,setting,value
"C[C@@H]1C[C@H]2[C@@H]3CCC4=CC(=O)C=C[C@]4(C)[C@@]3(F)[C@@H](O)C[C@]2(C)[C@@]1(O)C(=O)COC(=O)OCCOCCOCCOC(=O)OCC(=O)[C@@]1(O)[C@H](C)C[C@H]2[C@@H]3CCC4=CC(=O)C=C[C@]4(C)[C@@]3(F)[C@@H](O)C[C@@]21C [Compound 1, dexamethasone-triethylene glycol-dexamethasone]",Drug load,"heat press process, 185° C. pre-melt, 1500 PSI for 30 seconds",37.1±8.1 μg/mm^2
same,Range of drug loadings,"heat press, 150 C-180 C, 700-3000 PSI, 30 s-10 min",4-37 ag/mm^2
same,Drug loading,"spray coating from acetone, substrate surface area 3-6 mm^2",up to 120 μg
same,Drug load,"spray-coating and drying, 50 mg/mL solution and 80 sprays",7.8±1.2 μg/mm^2

# Source: US20220288277A1, “SURFACE COATINGS AND IMPLANTABLE DEVICES COMPRISING DIMERIC STEROID PRODRUGS, AND USES THEREOF” (Ripple Therapeutics Corporation, priority 2019, published 2022)
